No constants are given. Whether binding was seen depends on the method and setting. For some assays here: In cells and extracts the contact can be indirect. Some entries that bind do so weakly or less than the wild type.

The chains behind the UniProt entries cited, without tags or fusion partners.
UniProt Q01094: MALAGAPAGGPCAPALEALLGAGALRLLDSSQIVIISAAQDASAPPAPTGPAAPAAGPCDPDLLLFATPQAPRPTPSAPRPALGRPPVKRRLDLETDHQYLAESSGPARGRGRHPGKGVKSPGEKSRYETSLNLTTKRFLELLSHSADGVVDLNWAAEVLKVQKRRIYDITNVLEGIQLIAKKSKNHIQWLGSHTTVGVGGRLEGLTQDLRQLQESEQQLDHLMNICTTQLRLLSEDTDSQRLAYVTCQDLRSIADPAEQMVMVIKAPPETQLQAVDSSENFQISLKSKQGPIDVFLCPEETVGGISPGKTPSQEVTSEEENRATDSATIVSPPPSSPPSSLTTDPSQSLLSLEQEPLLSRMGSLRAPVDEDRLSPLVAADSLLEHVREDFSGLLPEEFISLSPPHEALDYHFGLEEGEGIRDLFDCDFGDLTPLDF
UniProt P33527: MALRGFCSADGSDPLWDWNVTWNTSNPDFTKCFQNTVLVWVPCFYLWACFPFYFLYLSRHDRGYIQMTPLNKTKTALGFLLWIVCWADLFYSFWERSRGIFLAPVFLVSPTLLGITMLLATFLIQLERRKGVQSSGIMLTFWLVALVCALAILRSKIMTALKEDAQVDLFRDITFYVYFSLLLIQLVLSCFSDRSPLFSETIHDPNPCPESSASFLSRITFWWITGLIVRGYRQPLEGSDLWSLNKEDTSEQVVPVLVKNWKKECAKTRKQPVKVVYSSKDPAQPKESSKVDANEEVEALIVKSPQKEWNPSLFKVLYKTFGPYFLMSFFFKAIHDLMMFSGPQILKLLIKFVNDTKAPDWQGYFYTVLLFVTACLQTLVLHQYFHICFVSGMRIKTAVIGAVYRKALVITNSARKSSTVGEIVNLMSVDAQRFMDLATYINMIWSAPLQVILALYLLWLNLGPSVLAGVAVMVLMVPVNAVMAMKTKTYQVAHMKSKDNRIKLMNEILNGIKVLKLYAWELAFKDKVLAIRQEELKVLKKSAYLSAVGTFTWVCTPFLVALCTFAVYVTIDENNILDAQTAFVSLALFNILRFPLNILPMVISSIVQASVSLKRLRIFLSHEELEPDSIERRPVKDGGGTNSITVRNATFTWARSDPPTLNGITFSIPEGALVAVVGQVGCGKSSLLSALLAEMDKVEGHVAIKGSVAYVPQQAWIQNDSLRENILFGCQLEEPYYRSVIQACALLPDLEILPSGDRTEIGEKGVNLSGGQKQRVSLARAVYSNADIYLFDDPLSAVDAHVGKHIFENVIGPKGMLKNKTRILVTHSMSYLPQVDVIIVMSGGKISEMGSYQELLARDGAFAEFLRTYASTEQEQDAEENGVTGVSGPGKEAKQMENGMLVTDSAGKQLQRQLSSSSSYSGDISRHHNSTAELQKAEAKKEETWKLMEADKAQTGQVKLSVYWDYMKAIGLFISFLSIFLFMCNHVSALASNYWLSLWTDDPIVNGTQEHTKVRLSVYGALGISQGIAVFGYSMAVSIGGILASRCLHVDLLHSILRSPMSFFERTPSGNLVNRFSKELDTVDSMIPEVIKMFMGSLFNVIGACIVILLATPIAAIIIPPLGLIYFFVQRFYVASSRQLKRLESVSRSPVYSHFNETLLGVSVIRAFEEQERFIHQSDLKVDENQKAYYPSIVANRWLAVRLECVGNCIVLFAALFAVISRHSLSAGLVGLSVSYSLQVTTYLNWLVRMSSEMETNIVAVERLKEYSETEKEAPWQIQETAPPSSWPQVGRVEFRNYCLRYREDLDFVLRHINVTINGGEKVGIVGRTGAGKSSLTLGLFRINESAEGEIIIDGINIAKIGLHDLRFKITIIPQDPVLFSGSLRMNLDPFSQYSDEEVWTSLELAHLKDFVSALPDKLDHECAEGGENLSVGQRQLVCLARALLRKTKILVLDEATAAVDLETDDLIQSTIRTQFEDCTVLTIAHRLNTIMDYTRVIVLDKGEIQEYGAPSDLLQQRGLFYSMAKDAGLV

Two substances from publication PMC4258940 can be followed below.

The target in assay [1] is E2F1 in lysate of SGC7901/DDP gastric carcinoma cells (human (endogenous in SGC7901/DDP)) (UniProt Q01094). Description: co-IP; reciprocal immunoprecipitation and western blot in lysates of SGC7901/DDP cells stably expressing E2F1; lysis buffer 100 mmol/L NaCl, 10 mmol/L Tris-HCl pH 7.6, 1 mmol/L EDTA, 1% NP-40. A general note: A western blot detects proteins with antibodies after separation by electrophoresis.

Another assay has as its target GST-E2F1 (UniProt Q01094). As to the kind of experiment: pull-down; in vitro GST pull-down using purified proteins: His-MRP with GST-E2F1 or GST; both purified.

In the case of “MRP, endogenous in SGC7901/DDP gastric carcinoma cells (from UniProt P33527 1-1531)”, the binding entry in assay [1] is “binds”. For the substance “6xHis-tagged MRP (from UniProt P33527 1-1531)”, the binding entry with GST-E2F1 is recorded as “binds”.
